Results: PMC3830522
These are yes or no findings as the source states them, for the method shown. In cells and extracts the contact can be indirect. For some of these results: Binding can be weak; no strength is given.

T1: NBR1-derived UBA domain on agarose beads (UniProt Q14596)
T1 sequence: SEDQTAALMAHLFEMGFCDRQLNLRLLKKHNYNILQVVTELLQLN

B1: EDEM (ER degradation-enhancing α-mannosidase-like protein) (protein, UniProt Q92611 1-657)
chain: MQWRALVLGLVLLRLGLHGVLWLVFGLGPSMGFYQRFPLSFGFQRLRSPDGPASPTSGPVGRPGGVSGPSWLQPPGTGAAQSPRKAPRRPGPGMCGPANWGYVLGGRGRGPDEYEKRYSGAFPPQLRAQMRDLARGMFVFGYDNYMAHAFPQDELNPIHCRGRGPDRGDPSNLNINDVLGNYSLTLVDALDTLAIMGNSSEFQKAVKLVINTVSFDKDSTVQVFEATIRVLGSLLSAHRIITDSKQPFGDMTIKDYDNELLYMAHDLAVRLLPAFENTKTGIPYPRVNLKTGVPPDTNNETCTAGAGSLLVEFGILSRLLGDSTFEWVARRAVKALWNLRSNDTGLLGNVVNIQTGHWVGKQSGLGAGLDSFYEYLLKSYILFGEKEDLEMFNAAYQSIQNYLRRGREACNEGEGDPPLYVNVNMFSGQLMNTWIDSLQAFFPGLQVLIGDVEDAICLHAFYYAIWKRYGALPERYNWQLQAPDVLFYPLRPELVESTYLLYQATKNPFYLHVGMDILQSLEKYTKVKCGYATLHHVIDKSTEDRMESFFLSETCKYLYLLFDEDNPVHKSGTRYMFTTEGHIVSVDEHLRELPWKEFFSEEGGQDQGGKSVHRPKPHELKVINSSSNCNRVPDERRYSLPLKSIYMRQIDQMVGLI

Legend:
[1] = biological target: T1, NBR1-derived UBA domain on agarose beads; experiment: pull-down; only the target purified
[2] = biological target: LHBs (large surface protein of HBV) (Hepatitis B virus (subtype B)); experiment: co-IP
[3] = biological target: N123S LHBs mutation protein (Hepatitis B virus (subtype B)); experiment: co-IP
[4] = biological target: N15S LHBs mutation protein (Hepatitis B virus (subtype B)); experiment: co-IP
[5] = biological target: N177S LHBs mutation protein (Hepatitis B virus (subtype B)); experiment: co-IP
[6] = biological target: N320K LHBs mutation protein (Hepatitis B virus (subtype B)); experiment: co-IP

Molecule | binding [1] | also measured
LHBs (large surface protein of HBV) (Hepatitis B virus (subtype B)) | no binding | 
N15S LHBs mutation protein (Hepatitis B virus (subtype B)) | no binding | 
N123S LHBs mutation protein (Hepatitis B virus (subtype B)) | no binding | 
N177S LHBs mutation protein (Hepatitis B virus (subtype B)) | no binding | 
N320K LHBs mutation protein (Hepatitis B virus (subtype B)) | no binding | 
B1 |  | binding [2]: no binding; binding [3]: binds; binding [4]: binds; binding [5]: binds; binding [6]: binds
